Results taken from PubChem BioAssay AID1671190 (National Center for Advancing Translational Sciences (NCATS), 2021).
The whole screen tested about 580,000 compounds, of which about 6,100 (1.1%) were called active. This list was built around the results that the source calls inconclusive (neither active nor inactive); the mix of calls is not that of the screen. Calls come from the whole dose curve; as a rule, active = well fitted inhibition curve with a large enough effect; inconclusive = small, poorly fitted or top-dose-only effect, or another doubt; inactive = no such curve, though single readings can be large or run the other way. A potency beside an inconclusive call is a rough fit, not a confirmed value.

By UniProt entry, the sequences of proteins in these tests, tags left out. Where a name states a change or a piece, a line headed by the entry shows the natural chain unless it says otherwise.
UniProt P18054: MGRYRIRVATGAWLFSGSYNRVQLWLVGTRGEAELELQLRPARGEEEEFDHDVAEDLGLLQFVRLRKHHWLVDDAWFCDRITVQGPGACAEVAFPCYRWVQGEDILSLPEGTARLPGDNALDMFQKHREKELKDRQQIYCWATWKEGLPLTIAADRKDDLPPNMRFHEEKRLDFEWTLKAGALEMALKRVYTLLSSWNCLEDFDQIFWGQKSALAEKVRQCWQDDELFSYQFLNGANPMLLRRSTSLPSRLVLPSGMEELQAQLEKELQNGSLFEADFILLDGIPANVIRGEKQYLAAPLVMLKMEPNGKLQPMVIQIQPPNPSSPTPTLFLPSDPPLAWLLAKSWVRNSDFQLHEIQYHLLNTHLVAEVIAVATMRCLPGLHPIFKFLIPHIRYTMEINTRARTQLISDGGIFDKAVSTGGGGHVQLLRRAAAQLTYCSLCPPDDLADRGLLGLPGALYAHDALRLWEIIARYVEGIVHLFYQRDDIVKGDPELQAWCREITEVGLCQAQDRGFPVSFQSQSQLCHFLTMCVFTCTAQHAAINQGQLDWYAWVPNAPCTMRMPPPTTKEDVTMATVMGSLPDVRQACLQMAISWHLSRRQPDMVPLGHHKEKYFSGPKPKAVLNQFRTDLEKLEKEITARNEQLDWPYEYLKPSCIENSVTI

target: Polyunsaturated fatty acid lipoxygenase ALOX12 (Homo sapiens) (UniProt P18054); assay: Primary qHTS assay for inhibitors of human arachidonate 12S-lipoxygenase (ALOX12): Round 2; conditions: purified 12hLO, xylenol orange hydroperoxide absorbance; series mostly up to 108 µM
Procedure, shortened: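 Purified human 12hLO (150 nM final) in 25 mM Hepes, 0.01% Triton X-100, pH 7.0 was preincubated 15 min at room temperature with compound. Then 40 uM arachidonic acid was added, 30 min. Hydroperoxide was read by Fe-XO absorbance ratio 573/405 nm.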
Potency is the fitted concentration of half-maximal effect.

SMILES	Potency
O=C(NCc1ccc(-c2cccc(Cl)c2)o1)[C@H]1CCC[C@@H](O)C1	inactive
CCOc1ccc(-c2nnc(SCC(=O)c3ccccc3)n2-c2ccccc2)cc1	inconclusive: 141 µM [inhibitor, partial curve, poor fit]
C/C(=N\N1CCN(c2ccc(Cl)cc2)CC1)c1cccc([N+](=O)[O-])c1	inconclusive: 50.1 µM [inhibitor, partial curve, poor fit]
Cn1cccc1-c1cc2n(n1)CCC(=O)N2CCCC(=O)NCc1ccc(F)cc1	inconclusive: 56.2 µM [inhibitor, partial curve, poor fit]
Oc1ccc(C[C@@H]2CNC(=S)N2CCCCC2CCCCC2)cc1	inconclusive: 39.8 µM [inhibitor, partial curve, poor fit]
O=C1C=C(NCCc2ccc(Cl)cc2)C2(CCCCC2)O1	inactive
Cc1cccc(C)c1NC(=O)Cn1c(SCC(=O)NCc2ccccc2)nc2ccccc21	inconclusive: 158 µM [inhibitor, partial curve, poor fit]
NC(=O)c1c(NC(=O)c2ccc(F)cc2)sc2c1CCC2	active: 17.8 µM
C#CCOCCOCCOCCNc1nc(N2CCN(C(=O)Cn3cc(CC(C)O)nn3)CC2)nc(N2CCN(C(=O)[C@H](C)n3cc(CCC(=O)O)nn3)CC2)n1 (some centres undefined)	inconclusive: 31.6 µM [inhibitor, partial curve]
CN1CC(=O)N(c2ccccc2F)Cc2c(NCc3ccccc3)ncnc21	inactive
CC1CCCCC1NC(=O)c1cc(-c2ccccc2)nc2ccccc12 (centres undefined)	inconclusive: 12.6 µM [inhibitor, full curve, poor fit]
CC(=NO)c1ccc2c(c1)Cc1cc([N+](=O)[O-])ccc1-2	inconclusive: 100 µM [inhibitor, single point]
COc1cc2c(cc1OC)C(C[C@H]1CN(C(=O)Cc3cccs3)CC[C@H]1CC(=O)O)=NCC2	inactive
Cc1ccc(-c2nn(-c3ccccc3)cc2CNCc2ccccc2)cc1	inconclusive: 50.1 µM [inhibitor, partial curve, poor fit]
CCCN1CCN(C(=S)NCc2ccc(Cl)cc2)CC1	inconclusive: 79.4 µM [inhibitor, partial curve, poor fit]
COc1ccc(CNC(=O)COC(=O)c2c[nH]c(=O)[nH]c2=O)cc1OC	inconclusive: 79.4 µM [inhibitor, single point]
COC(=O)C1=C(C)N(Cc2ccc(Br)cc2)C(=S)NC1c1ccc(OC)cc1 (centres undefined)	active: 44.7 µM
CCOc1ccc(OCCCCN(C)C)cc1	inconclusive: 0.447 µM [inhibitor, full curve, poor fit]
Cc1cnc(C(=O)OCC(=O)c2ccc(C)s2)cn1	inconclusive: 70.8 µM [inhibitor, partial curve, poor fit]
CN(C)c1nc(-c2ccoc2)nc2ccccc12	inconclusive: 10 µM [inhibitor, full curve, poor fit]
CCn1c(=O)c(C(=O)CN2CCN(S(=O)(=O)c3ccc(C)cc3C)CC2)c(N)n(Cc2ccccc2)c1=O	inconclusive: 70.8 µM [inhibitor, single point]
CC(=O)Nc1nc(=S)ss1	inconclusive: 39.8 µM [inhibitor, partial curve, poor fit]

An excerpt of these results, in markdown:

| SMILES | Potency |
| --- | --- |
| CCOc1ccc(OCCCCN(C)C)cc1 | inconclusive: 0.447 µM [inhibitor, full curve, poor fit] |
| Cc1cnc(C(=O)OCC(=O)c2ccc(C)s2)cn1 | inconclusive: 70.8 µM [inhibitor, partial curve, poor fit] |

Fetched one by one from above (2):
SMILES	Potency
COC(=O)C1=C(C)N(Cc2ccc(Br)cc2)C(=S)NC1c1ccc(OC)cc1 (centres undefined)	active: 44.7 µM
Cc1cnc(C(=O)OCC(=O)c2ccc(C)s2)cn1	inconclusive: 70.8 µM [inhibitor, partial curve, poor fit]

Following part

SMILES	Potency
COc1ccc(NC(=O)c2oc3ccccc3c2NC(=O)C2CC2)cc1OC	inconclusive: 112 µM [inhibitor, single point]
CCCC(=O)C1=C(NC(C)C(=O)O)CCCC1=O (centres undefined)	inactive
CC(=O)Nc1cc(-c2ccc(F)cc2)cn2c(-c3ccc(F)c(Cl)c3)cnc12	inconclusive: 100 µM [inhibitor, partial curve, poor fit]
COc1ccc(/C(N)=N/OC(=O)CN(C)S(=O)(=O)c2ccccc2)cc1	inconclusive: 141 µM [inhibitor, single point]
CC1Oc2ccccc2C=C1/C=N/Nc1ccc(C(=O)O)cc1 (centres undefined)	inactive
COc1cc(C(=O)NC2CCN(CC(=O)Nc3cccc(C)c3C)CC2)cc(OC)c1OC	inactive
COC(=O)C1=C(C)N=C2SC=C(CC(=O)NCc3ccco3)N2C1c1cccc(F)c1 (centres undefined)	inconclusive: 39.8 µM [inhibitor, single point]
COc1ccc(C(=O)Nc2ccc(S(=O)(=O)N3CCCC3)cc2)c(OC)c1	inconclusive: 158 µM [inhibitor, partial curve, poor fit]
O=C(CCSCCc1ccccn1)Nc1cccc(Cl)c1	inconclusive: 44.7 µM [inhibitor, partial curve, poor fit]
COc1ccc(-c2nc(C)c(CCNC(=O)c3c(F)cccc3F)s2)cc1	inactive
CC(=O)C1=CCC(c2ccc(Cl)cc2)N(S(=O)(=O)c2ccccc2C)C1 (centres undefined)	inconclusive: 28.2 µM [inhibitor, partial curve]
C=CC[C@H]1Cc2ccccc2[C@H](CC=C)N1	inconclusive: 10 µM [inhibitor, full curve, poor fit]
CCCCc1cn([C@@H](CCCCN)C(=O)N2CCNCC2)nn1	inconclusive: 44.7 µM [inhibitor, partial curve, poor fit]
Cc1ccc(C(=O)/C=C/c2ccc3ccccc3c2)o1	inconclusive: 15.8 µM [inhibitor, full curve]
CC(=O)N(C)C[C@@H]1Oc2cc(Br)ccc2S(=O)(=O)N([C@H](C)CO)C[C@@H]1C	inconclusive: 112 µM [inhibitor, single point]
CCCCN(Cc1ccccc1)c1ccc(NS(=O)(=O)c2ccc3c(c2)CCCC3)cc1C(=O)O	inconclusive: 39.8 µM [inhibitor, partial curve, poor fit]
O=C(CSc1nc2cc(Cl)ccc2s1)c1ccco1	inconclusive: 44.7 µM [inhibitor, full curve, poor fit]
CC(=O)Nc1c(Br)cc2c(c1Br)Cc1cc([N+](=O)[O-])ccc1-2	inactive
CC1Cc2cc(/C(O)=C3/C(=O)C(=O)N(CCN4CCOCC4)C3c3ccc([N+](=O)[O-])cc3)ccc2O1 (centres undefined)	inconclusive: 3.98 µM [inhibitor, full curve, poor fit]
Cc1nc([N+](=O)[O-])cn1CCCCN1C(=O)c2ccccc2C1=O	inconclusive: 126 µM [inhibitor, single point]
CCn1cc(S(=O)(=O)N2CCN(c3ccc(Cl)cc3)CC2)cn1	inactive
O=C(NO)c1cc(OCC(F)(F)F)ccc1OCC(F)(F)F	inconclusive: 1.78 µM [inhibitor, full curve, poor fit]

SMILES	Potency
Cn1c(=O)n(C)c2cc(S(=O)(=O)Nc3ccccc3)ccc21	inactive
COCCCn1cc(CN2CC(N3CCN(C)CC3)CS2(=O)=O)nn1 (centres undefined)	inconclusive: 28.2 µM [inhibitor, full curve, poor fit]
CCCC(=O)N1CCCC1(C)C(=O)Nc1cc(C)ccc1C (centres undefined)	inconclusive: 31.6 µM [inhibitor, partial curve, poor fit]
COC(=O)C1=C(C)N(Cc2ccccc2)C(=O)N[C@H]1c1cccc(C(F)(F)F)c1	inactive
COC(=O)c1cn([C@H]2CN[C@H](C(=O)N3CCC(O)(CO)CC3)C2)nn1	inconclusive: 10 µM [inhibitor, full curve, poor fit]
Cc1nnc(NC(=O)C2=COCCO2)s1	inconclusive: 79.4 µM [inhibitor, partial curve, poor fit]
O=C(c1ccc(C(F)(F)F)cc1)N1CCCC(c2nn(-c3ccc(F)cc3)c(=O)[nH]2)C1 (centres undefined)	inconclusive: 50.1 µM [inhibitor, partial curve, poor fit]
Cc1ccnc(NS(=O)(=O)c2ccc(N=CC3=C(O)CC(C)(C)CC3=O)cc2)n1	inconclusive: 2.82 µM [inhibitor, full curve, poor fit]
CN(C)CCCN(C(=O)c1ccc(S(=O)(=O)N2CCc3ccccc3C2)cc1)c1nc2c(F)cccc2s1	inconclusive: 50.1 µM [inhibitor, partial curve, poor fit]
COc1cc2c(cc1OC)C(C)N(C(=O)c1cccs1)CC2 (centres undefined)	inactive
CCCCc1ccc(NC(=O)Cn2cc(C#N)c3ccccc32)cc1	inconclusive: 89.1 µM [inhibitor, single point]
O=C(Nc1ccc(-c2nc3ccccc3s2)c(OC(=O)c2ccccc2)c1)c1ccccc1	inactive
COc1ccccc1N1CCN(C2CCN(C(=O)COc3cccc(C)c3)CC2)CC1	inconclusive: 2.82 µM [inhibitor, full curve]
O=C(O)c1cc(-c2cccs2)nc2ccccc12	inconclusive: 56.2 µM [inhibitor, partial curve, poor fit]
COc1cc(CCC(=O)Nc2ccc(S(=O)(=O)N3CCCC3)cc2)cc(OC)c1OC	inconclusive: 100 µM [inhibitor, single point]
CCCN1CCC(=O)N(CCSc2ccc(OC)cc2)CC1	inconclusive: 112 µM [inhibitor, single point]
CSc1ccccc1C(=O)Nc1ccc2ccccc2c1	inactive
O=S(=O)(NCC(c1cccnc1)S(=O)(=O)c1ccccc1)c1ccc(Cl)cc1 (centres undefined)	inconclusive: 39.8 µM [inhibitor, partial curve, poor fit]
CC(=O)Nc1ccc(S(=O)(=O)NCc2ccc(C(=O)NCCN(C)Cc3ccccc3)cc2)cc1	inactive
CCN1c2cc(C(=O)NCc3cccc(Cl)c3)ccc2C(=O)N2CCCCCC21 (centres undefined)	inconclusive: 25.1 µM [inhibitor, partial curve, poor fit]
